The record followed here is PMC7862700.

Common to all, as to assay: DAPPL (digital affinity profiling via proximity ligation, sequencing)
Common to all, as to settings: 10 mM Tris-HCl pH 7.5, 50 mM NaCl, 1 mM DTT, 4% glycerol, room temperature, 30 min; GST-TFs on glutathione beads, 16-mer random dsDNA library, 0.1% …; high values mean tight binding; double strand, one strand shown; scale: fold enrichment (6-mer frequency, TF over GST control)

For one experiment, the target named is T1, GABPA (UniProt Q06546).
T1 sequence: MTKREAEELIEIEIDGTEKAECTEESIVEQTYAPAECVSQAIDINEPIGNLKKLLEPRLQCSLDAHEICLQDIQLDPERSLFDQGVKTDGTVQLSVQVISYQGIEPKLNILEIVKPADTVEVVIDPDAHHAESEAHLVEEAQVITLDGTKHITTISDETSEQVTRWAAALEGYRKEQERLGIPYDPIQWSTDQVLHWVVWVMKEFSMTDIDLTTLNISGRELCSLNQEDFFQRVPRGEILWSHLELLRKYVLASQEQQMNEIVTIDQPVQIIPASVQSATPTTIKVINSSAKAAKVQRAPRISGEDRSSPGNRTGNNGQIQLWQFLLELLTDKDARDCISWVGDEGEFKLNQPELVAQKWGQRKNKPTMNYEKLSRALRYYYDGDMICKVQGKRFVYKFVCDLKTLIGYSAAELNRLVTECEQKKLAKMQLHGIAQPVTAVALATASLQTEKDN

For a further experiment, the target named is T2, ETS1 (UniProt P14921).
T2 sequence: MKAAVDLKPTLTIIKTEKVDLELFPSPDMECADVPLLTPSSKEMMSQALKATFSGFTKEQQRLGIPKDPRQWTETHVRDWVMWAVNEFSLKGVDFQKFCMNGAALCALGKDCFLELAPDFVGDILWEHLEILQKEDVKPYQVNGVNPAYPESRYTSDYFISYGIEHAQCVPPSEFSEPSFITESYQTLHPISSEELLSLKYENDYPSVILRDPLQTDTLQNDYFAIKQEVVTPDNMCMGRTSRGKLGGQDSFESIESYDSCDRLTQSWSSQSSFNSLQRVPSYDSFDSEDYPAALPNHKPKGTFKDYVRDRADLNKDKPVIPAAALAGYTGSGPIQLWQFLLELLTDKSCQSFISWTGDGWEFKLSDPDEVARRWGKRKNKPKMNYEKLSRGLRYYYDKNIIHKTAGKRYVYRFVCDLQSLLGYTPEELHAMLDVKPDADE

The next experiment concerns the target T3, SPDEF (UniProt O95238).
T3 sequence: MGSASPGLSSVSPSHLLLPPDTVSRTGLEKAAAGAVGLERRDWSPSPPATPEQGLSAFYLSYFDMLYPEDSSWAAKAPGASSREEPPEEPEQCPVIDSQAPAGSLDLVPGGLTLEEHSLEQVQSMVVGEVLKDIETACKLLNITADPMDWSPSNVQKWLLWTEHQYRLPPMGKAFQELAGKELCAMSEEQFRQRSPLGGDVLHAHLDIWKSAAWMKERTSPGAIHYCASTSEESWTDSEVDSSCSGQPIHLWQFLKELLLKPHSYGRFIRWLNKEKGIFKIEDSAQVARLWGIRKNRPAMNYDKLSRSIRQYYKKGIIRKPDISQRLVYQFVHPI

Only a part is listed here, and it is no random draw. For part of these data: At the low end of the ranking the order means little. This is one part of the list. For part of these data: Construct or isoform of the protein are uncertain.

With CACCAG, the binding signal in the experiment with GABPA is 0.699; with ETS1 it was 0.736; in the experiment with SPDEF it was 0.713.

On to ACGAGA, for which the binding signal came out at 0.692 with GABPA, 0.638 with ETS1 and 0.675 in the experiment with SPDEF.

Turning to GCGTAA, the binding signal in the experiment with GABPA was found to be 0.879; in the experiment with ETS1, 0.857; with SPDEF, 0.81.

Turning to GTGGAG, the results for the binding signal with GABPA, with ETS1 and with SPDEF were 0.44, 0.423 and 0.402, respectively.

With GTCTGT, the figures for the binding signal in the experiment with GABPA, in the experiment with ETS1 and with SPDEF were 0.906, 0.896 and 0.922, respectively.

For CGCGGT, the values for the binding signal in the experiment with GABPA, with ETS1 and with SPDEF were 0.858, 0.868 and 0.818, respectively.

As for GCCAAG, the binding signal stood at 0.924 with GABPA, 0.873 with ETS1 and 0.854 with SPDEF.

For the sequence CAGTGC, the figures for the binding signal in the experiment with GABPA, with ETS1 and in the experiment with SPDEF were 0.748, 0.813 and 0.773, respectively.

Consider TGGGGA, for which the binding signal with GABPA came to 0.898; with ETS1, 0.775; with SPDEF, 0.669.

With CGTGAC, the binding signal with GABPA was 0.547; in the experiment with ETS1, 0.512; in the experiment with SPDEF, 0.606.

GGACCC: the binding signal with GABPA came out at 0.891; with ETS1, 0.837; with SPDEF, 0.967.

For the sequence AGTGAG, the values for the binding signal with GABPA, with ETS1 and with SPDEF were 0.266, 0.247 and 0.245, respectively.

Turning to GCGGGG, the results for the binding signal with GABPA, with ETS1 and in the experiment with SPDEF were 0.475, 0.481 and 0.462, respectively.

With AGCGGT, the binding signal was 0.648 in the experiment with GABPA, 0.639 with ETS1 and 0.728 with SPDEF.

Take GGGCAC: the results for the binding signal in the experiment with GABPA, with ETS1 and with SPDEF were 0.794, 0.756 and 0.818, respectively.

On to GACTAG, for which the binding signal in the experiment with GABPA worked out at 0.865; with ETS1 it was 0.735; in the experiment with SPDEF, 0.781.

Consider GTGTAT, for which the values for the binding signal with GABPA, in the experiment with ETS1 and in the experiment with SPDEF were 0.914, 0.943 and 0.988, respectively.

In the case of CGCGAG, the figures for the binding signal with GABPA, with ETS1 and with SPDEF were 0.547, 0.507 and 0.511, respectively.

Consider CACAGG, for which the binding signal with GABPA was 0.905; with ETS1, 0.904; with SPDEF it was 0.853.

For ACAGCG, the values for the binding signal with GABPA, with ETS1 and with SPDEF were 0.738, 0.832 and 0.729, respectively.

Turning to CACCGT, the binding signal with GABPA worked out at 0.622; with ETS1 it was 0.629; with SPDEF it was 0.739.

For GGACTG, the values for the binding signal with GABPA, with ETS1 and with SPDEF were 0.789, 0.673 and 0.72, respectively.

Turning to GTGATC, the binding signal with GABPA came out at 0.868; with ETS1 it was 0.786; in the experiment with SPDEF it was 0.905.

Turning to GAGTTT, the binding signal in the experiment with GABPA amounted to 0.596; in the experiment with ETS1, 0.633; with SPDEF, 0.559.

On to GGAAGG, for which the values for the binding signal with GABPA, in the experiment with ETS1 and with SPDEF were 0.83, 0.765 and 0.754, respectively.

In the case of ACAGGT, the figures for the binding signal in the experiment with GABPA, with ETS1 and with SPDEF were 0.75, 0.776 and 0.827, respectively.

TGGACG: the binding signal with GABPA is 0.871; with ETS1, 0.944; with SPDEF, 0.746.

AGAGCA: the binding signal amounted to 0.727 with GABPA, 0.701 with ETS1 and 0.688 with SPDEF.

ACAGTA: the binding signal with GABPA was 0.903; in the experiment with ETS1, 0.833; with SPDEF, 0.88.

Regarding TGGAGG, the binding signal came out at 0.518 with GABPA, 0.484 with ETS1 and 0.441 with SPDEF.

For CCAGGC, the binding signal in the experiment with GABPA was 0.426; with ETS1, 0.456; with SPDEF it was 0.368.

GGCGTA: the figures for the binding signal in the experiment with GABPA, with ETS1 and with SPDEF were 0.663, 0.657 and 0.643, respectively.

For GCGCAG, the binding signal stood at 0.876 with GABPA, 0.843 with ETS1 and 0.769 in the experiment with SPDEF.

Regarding GGACAC, the binding signal with GABPA amounted to 0.707; with ETS1, 0.735; with SPDEF, 0.846.

As for AGTCCA, the binding signal stood at 0.716 with GABPA, 0.696 with ETS1 and 0.65 with SPDEF.

Regarding AGATTG, the binding signal in the experiment with GABPA amounted to 0.85; with ETS1, 0.883; with SPDEF, 0.733.

In the case of GGTGAG, the results for the binding signal with GABPA, with ETS1 and in the experiment with SPDEF were 0.349, 0.342 and 0.345, respectively.

For GGCACG, the binding signal with GABPA came out at 0.901; with ETS1, 0.772; with SPDEF it was 0.787.

Turning to ACCGTG, the results for the binding signal with GABPA, with ETS1 and with SPDEF were 0.223, 0.222 and 0.231, respectively.

For the sequence AGGAGC, the binding signal with GABPA is 0.426; in the experiment with ETS1 it was 0.418; with SPDEF, 0.355.

Turning to TGACAG, the binding signal in the experiment with GABPA is 0.968; with ETS1 it was 0.939; in the experiment with SPDEF, 0.999.

For AGGCGT, the binding signal with GABPA was 0.511; with ETS1, 0.514; with SPDEF, 0.491.

Turning to GCGGAT, the figures for the binding signal with GABPA, in the experiment with ETS1 and in the experiment with SPDEF were 0.951, 0.877 and 1.25, respectively.

AGAGGC: the binding signal was 0.765 in the experiment with GABPA, 0.67 with ETS1 and 0.632 with SPDEF.

Regarding ACGGGA, the figures for the binding signal with GABPA, with ETS1 and in the experiment with SPDEF were 0.542, 0.577 and 0.514, respectively.

Regarding GAGGAA, the values for the binding signal with GABPA, in the experiment with ETS1 and with SPDEF were 0.738, 0.779 and 0.631, respectively.

Regarding GCCGGT, the binding signal amounted to 0.615 with GABPA, 0.701 with ETS1 and 0.657 in the experiment with SPDEF.

Consider GCGCGA, for which the binding signal with GABPA worked out at 0.785; with ETS1, 0.804; in the experiment with SPDEF it was 0.697.

As to CACGGG, the binding signal with GABPA is 0.794; with ETS1, 0.758; with SPDEF, 0.728.

In the case of GACGTC, the binding signal with GABPA is 0.827; with ETS1, 0.87; in the experiment with SPDEF it was 0.823.

Take GTGGTG: the figures for the binding signal in the experiment with GABPA, with ETS1 and with SPDEF were 0.911, 0.863 and 0.888, respectively.

For the sequence AGTGAA, the results for the binding signal with GABPA, with ETS1 and with SPDEF were 0.909, 0.927 and 0.827, respectively.

TGTGTG: the binding signal turned out to be 0.862 with GABPA, 0.807 in the experiment with ETS1 and 0.904 in the experiment with SPDEF.

Regarding GTGCGT, the values for the binding signal in the experiment with GABPA, with ETS1 and with SPDEF were 0.572, 0.598 and 0.573, respectively.

In the case of CAGGCG, the binding signal in the experiment with GABPA came to 0.273; with ETS1, 0.3; in the experiment with SPDEF, 0.248.

With AACCGT, the results for the binding signal in the experiment with GABPA, with ETS1 and in the experiment with SPDEF were 0.522, 0.506 and 0.528, respectively.

Turning to GCAGTT, the binding signal with GABPA amounted to 0.926; in the experiment with ETS1, 0.788; with SPDEF it was 0.898.

As to AGACGG, the figures for the binding signal in the experiment with GABPA, with ETS1 and with SPDEF were 0.329, 0.351 and 0.366, respectively.

With CGAGTG, the binding signal was 0.825 with GABPA, 0.78 in the experiment with ETS1 and 0.763 with SPDEF.

CCGAGT: the results for the binding signal in the experiment with GABPA, in the experiment with ETS1 and with SPDEF were 0.897, 0.927 and 0.91, respectively.
